Results from article PMC9869517.
Results are given in words; binding and its absence hold for the method and conditions named. Binding seen in cells or lysates may run through a third protein. Some entries that bind do so weakly or less than the wild type.

Protein sequences, listed by entry. Tags and fused reporters are not part of them.
UniProt P62835: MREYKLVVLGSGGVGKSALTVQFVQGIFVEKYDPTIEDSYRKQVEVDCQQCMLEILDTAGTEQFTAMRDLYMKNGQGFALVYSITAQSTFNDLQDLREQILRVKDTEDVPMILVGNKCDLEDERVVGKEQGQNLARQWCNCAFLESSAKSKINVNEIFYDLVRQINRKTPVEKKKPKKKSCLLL

Target: Rap1a (mouse (endogenous in primary mouse endometrial stromal cells)) (UniProt P62835)
Experiment: co-IP; lysates of ESCs plated on 1 kPa hydrogels; anti-Rap1a or normal IgG on Protein A + G magnetic beads, incubated with lysate overnight at 4 °C; washed three times with lysis buffer; western blot

B1: p190A RhoGAP (p190A), encoded by the ARHGAP35 gene (protein, UniProt Q91YM2 1-1499)
chain: MMMARKQDVRIPTYNISVVGLSGTEKEKGQCGIGKSCLCNRFVRPSADEFHLDHTSVLSTSDFGGRVVNNDHFLYWGEVSRSLEDCVECKMHIVEQTEFIDDQTFQPHRSTALQPYIKRAAATKLASAEKLMYFCTDQLGLEQDFEQKQMPDGKLLVDGFLLGIDVSRGMNRNFDDQLKFVSNLYNQLAKTKKPIVVVLTKCDEGVERYIRDAHTFALSKKNLQVVETSARSNVNVDLAFSTLVQLIDKSRGKTKIIPYFEALKQQSQQIATAKDKYEWLVSRIVKNHNENWPSVSRKMQASPEYQDYVYLEGTQKAKKLFLQHIHRLKHEHIERRRKLYLAALPLAFEALIPNLDEVDHLSCIKAKKLLETKPEFLKWFVVLEETPWDATSHIDNMENERIPFDLMDTVPAEQLYETHLEKLRNERKRAEMRRAFKENLETSPFITPGKPWEEARSFIMNEDFYQWLEESVYMDIYGKHQKQIIDRAKEEFQELLLEYSELFYELELDAKPSKEKMGVIQDVLGEEQRFKALQKLQAERDALILKHIHFVYHPTKETCPSCPACVDAKIEHLISSRFIRPSDRNQKNSLSDLNIDRINLVILGKDGLARELANEIRALCTNDDKYVIDGKMYELSLRPIEGNVRLPVNSFQTPTFQPHGCLCLYNSKESLSYVVESIEKSRESTLGRRDNHLVHLPLTLILVNKRGDTSGETLHSLIQQGQQIASKLQCVFLDPASAGIGYGRNINEKQISQVLKGLLDSKRNLNLVSSTASIKDLADVDLRIVMCLMCGDPFSADDVLSPVLQSQTCKSSHCGSSNSVLLELPIGLHKKRIELSVLSYHSSFSIRKSRLVHGYIVFYSAKRKASLAMLRAFLCEVQDIIPIQLVALTDGAIDVLDNDLSREQLTEGEEIAQEIDGRFTSIPCSQPQHKLELFHPFFKDVVEKKNIIEATHMYDNVAEACSTTEEVFNSPRAGSPLCNSNLQDSEEDVEPPSYHLFREDATLPSLSKDHSKFSMELEGNDGLSFIMSNFESKLNNKVPPPVKPKPPVHFDITKDLSYLDQGHREGQRKSMSSSPWMPQDGFDPSDYAEPMDAVVKPRNEEENIYSVPHDSTQGKIITIRNINKAQSNGSGNGSDSEMDTSSLERGRKVSAVSKPVLYRTRCTRLGRFASYRTSFSVGSDDELGPIRKKEEDQASQGYKGDNAVIPYETDEDPRRRNILRSLRRNTKKPKPKPRPSITKATWESNYFGVPLTTVVTPEKPIPIFIERCIEYIEATGLSTEGIYRVSGNKSEMESLQRQFDQDHNLDLAEKDFTVNTVAGAMKSFFSELPDPLVPYSMQIDLVEAHKINDREQKLHALKEVLKKFPKENHEVFKYVISHLNKVSHNNKVNLMTSENLSICFWPTLMRPDFSSMDALTATRSYQTIIELFIQQCPFFFYNRPISEPPGAAPGSPSAMAPTVPFLTSTPATSQPSPPQSPPPTPQSPMQPLLSSQLQAEHTL
- binding: binds
